Test results published in PubChem BioAssay AID504834 (National Center for Advancing Translational Sciences (NCATS), 2011).
About 22,000 (6.9%) of roughly 320,000 compounds were called active. Inconclusive results, whose numbers are uncertain, are shown with a selection of clear calls. Calls come from the whole dose curve; as a rule, active = well fitted inhibition curve with a large enough effect; inconclusive = small, poorly fitted or top-dose-only effect, or another doubt; inactive = no such curve, though single readings can be large or run the other way. A potency beside an inconclusive call is a rough fit, not a confirmed value.
% is set by controls: 0 for no effect and ±100 for the full control effect; potency is the fitted concentration of half-maximal effect.

Test: Primary qHTS for delayed death inhibitors of the malarial parasite plastid, 96 hour incubation
Conditions: P. falciparum luciferase reporter growth; series mostly up to 28.7 µM; activity change, negative = inhibition: at the top concentration
Outline: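 Cell-based qHTS: luciferase-tagged P. falciparum in erythrocytes (2% hematocrit, 0.05% parasitemia final) incubated with compounds for 96 hours, 37 C, 5% CO2; luciferase detection reagent then added and luminescence measured.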
For O=C(NCCc1c[nH]c2ccccc12)c1cc(S(=O)(=O)N2CCCCC2)ccc1N1CCOCC1, the “activity change, negative = inhibition” value was inactive: 65.6%.
In the case of O=c1c2[nH]c3ccc(Cl)cc3c2ncn1CCN1CCCCC1, the “activity change, negative = inhibition” value is reported as inactive: 60.4%.
For O=C(CN1CCCC1)N1CCCC(c2ccc(F)cc2)c2ccc(F)cc21 (stereo not given), the Potency was inconclusive: 18.5 µM [inhibitor, single point].
With CC1=NN(c2ccccc2)C(=O)C1C=Nc1ccc(N(C)C)cc1 (stereo not given) the Potency was inconclusive: 1.47 µM [inhibitor, full curve].
For Fc1ccc(CSc2nc3ncc(Br)cc3[nH]2)cc1, the Potency was active: 9.28 µM.
In the case of COc1cccc(-c2csc(N3CCN(C(=S)Nc4ccccc4Cl)CC3)n2)c1, the Potency is reported as inconclusive: 8.28 µM [inhibitor, partial curve, poor fit].
With COc1ccc(C2C(C(=O)OC(C)C)=C(C)N=c3s/c(=C\c4cccs4)c(=O)n32)cc1 (stereo not given) the Potency was inconclusive: 1.04 µM [inhibitor, full curve, poor fit].
With Fc1cc(F)cc(-c2c(-c3ccccc3)ncc3ccc(F)cc23)c1 the Potency was inconclusive: 0.262 µM [inhibitor, full curve, poor fit].
With O=C(O)c1ccccc1C(=O)Nc1ccc(S(=O)(=O)Nc2nccs2)cc1 the Potency was “inactive”.
In the case of CCOC(=O)c1c(NC(=O)C(C)NCc2ccco2)sc2c1CCC(C)C2 (stereo not given), the Potency is reported as inconclusive: 8.28 µM [inhibitor, partial curve, poor fit].
In the case of COc1ccc(-n2c(Cc3cc(=O)[nH]c(=O)[nH]3)nnc2SCc2ccccc2)cc1, the Potency is reported as inconclusive: 11.7 µM [inhibitor, single point].
For C=C(Cl)COc1ccc2c(C)cc(=O)oc2c1, the “activity change, negative = inhibition” value was inactive: 92.5%.
In the case of CCCCn1c(N)c(N(CCC(C)C)C(=O)C2CSC3(C)CCC(=O)N23)c(=O)[nH]c1=O (stereo not given), the “activity change, negative = inhibition” value is reported as inactive: -3.23%.
For CCc1c(C)nc(Nc2nc(C)c3ccc(OC)cc3n2)[nH]c1=O, the Potency was active: 7.38 µM.
In the case of CC(NC(=S)Nc1ccc([N+](=O)[O-])cc1)c1ccncc1 (stereo not given), the “activity change, negative = inhibition” value is reported as inactive: -0.272%.
In the case of CCCCCC(=O)Nc1nc(C)c(-c2csc(Nc3ccccc3OCC)n2)s1, the Potency is reported as inconclusive: 18.5 µM [inhibitor, single point].
For CCOC(=O)C1(Cc2ccccc2C(F)(F)F)CCN(C2CCSC2)CC1 (stereo not given), the Potency was inconclusive: 11.7 µM [inhibitor, single point].
With COc1ccccc1NC(=O)COc1ccc2ccccc2c1 the Potency was inconclusive: 11.7 µM [inhibitor, single point].
For CCOC(=O)c1sc(-c2ccc(Cl)cc2Cl)nc1O, the “activity change, negative = inhibition” value was inactive: -4.66%.
In the case of Cc1ccc(S(=O)(=O)NC(=O)N(C)C2CCCCC2)cc1, the “activity change, negative = inhibition” value is reported as inactive: 44.1%.
In the case of CSCCC(NS(=O)(=O)c1ccc(Cl)cc1)C(=O)OCC(=O)c1ccc(F)cc1 (stereo not given), the “activity change, negative = inhibition” value is reported as inactive: 39.3%.
With CN(C)S(=O)(=O)c1cccc(C(=O)Nc2ccccc2N2CCCCC2)c1 the Potency was inconclusive: 10.4 µM [inhibitor, single point].
For CCCCN(C(=O)CSCC(=O)Nc1cccc(C)c1)c1c(N)n(Cc2ccccc2)c(=O)[nH]c1=O, the Potency was inconclusive: 18.5 µM [inhibitor, single point].
In the case of CCOC(=O)N1CCN(C(=O)c2ccc(CS(=O)Cc3ccccc3Cl)o2)CC1 (stereo not given), the Potency is reported as inconclusive: 18.5 µM [inhibitor, single point].
For COc1cc(-c2nc(-c3ccc(NC(=O)c4ccc(Br)o4)cc3)no2)cc(OC)c1OC, the Potency was inconclusive: 14.7 µM [inhibitor, partial curve, poor fit].
In the case of NS(=O)(=O)c1ccc(CCNC(=O)COc2ccc3c4c(c(=O)oc3c2)CCC4)cc1, the Potency is reported as inconclusive: 11.7 µM [inhibitor, partial curve, poor fit].
For Cc1ccc(-c2nc3ccccc3[nH]2)cc1NC(=O)/C=C/c1ccco1, the Potency was inconclusive: 18.5 µM [inhibitor, single point].
With O=C(Cc1cccc2ccccc12)NCC(=O)N1CCN(Cc2cccc(C(F)(F)F)c2)CC1 the “activity change, negative = inhibition” value was inactive: -15.8%.
For O=C1c2cccnc2-c2ncccc21, the Potency was inconclusive: 5.86 µM [inhibitor, partial curve, poor fit].
With Cc1ccc(C)c2[nH]c(=O)c(CN(CC3CCCO3)C(=S)NCc3ccco3)cc12 (stereo not given) the Potency was inconclusive: 11.7 µM [inhibitor, partial curve].
For Cc1nc(SC(C)C(=O)c2c(N)n(C)c(=O)n(C)c2=O)c2c(C)c(C)sc2n1 (stereo not given), the Potency was inconclusive: 10.4 µM [inhibitor, single point].
In the case of Cc1ccc(-c2ccc(C(=O)Nc3cccc(F)c3)o2)c2ccccc12, the Potency is reported as inconclusive: 18.5 µM [inhibitor, single point].
For O=C(c1ccc(CS(=O)c2ccc(F)cc2)o1)N1CCN(C2CCCCC2)CC1 (stereo not given), the Potency was inconclusive: 18.5 µM [inhibitor, single point].
With O=C(COC(=O)c1cccnc1Cl)Nc1ccc2c(c1)OCO2 the “activity change, negative = inhibition” value was inactive: -9.24%.
In the case of CCOc1ccc(NC(=O)CCNC(=O)C2CCN(S(=O)(=O)c3ccccc3)CC2)cc1, the Potency is reported as inconclusive: 18.5 µM [inhibitor, single point].
With COC1(OC)C(/C=C/c2ccc(Cl)cc2)C(C#N)(C#N)C1(OC)OC (stereo not given) the Potency was inconclusive: 18.5 µM [inhibitor, single point].
For CN(C)S(=O)(=O)c1ccc(N2C(=O)CC2(/C=C/c2ccccc2)C(=O)NC2CCCC2)cc1 (stereo not given), the Potency was inconclusive: 13.1 µM [inhibitor, partial curve, poor fit].
With COc1ccccc1C(=O)Nc1ccc(OCC(=O)N2C(C)CCCC2C)cc1 (stereo not given) the Potency was inconclusive: 18.5 µM [inhibitor, single point].
In the case of CC1CCCCN1S(=O)(=O)c1cccc2nonc12 (stereo not given), the Potency is reported as inconclusive: 4.15 µM [inhibitor, partial curve, poor fit].
In the case of COc1cc2nc(CN3C(=O)c4ccccc4C3=O)oc(=O)c2cc1OC, the “activity change, negative = inhibition” value is reported as inactive: -5.36%.
In the case of O=C(Nc1ccccc1F)c1ccc2ncsc2c1, the “activity change, negative = inhibition” value is reported as inactive: 159%.
With Cc1cccc(-n2c(SCc3cc(=O)n4ccsc4n3)nc3ccccc32)c1 the Potency was active: 4.15 µM.
In the case of CC(C)=CCN1CCN(Cc2nc(-c3ccccc3)cs2)CC1CCO (stereo not given), the “activity change, negative = inhibition” value is reported as inactive: 16.4%.
With O=C(/C=C/c1ccco1)NC(=S)Nc1ccccc1O the “activity change, negative = inhibition” value was inactive: 22.9%.
For COc1ccccc1C(=O)N/C(=C/c1ccc(Br)cc1)C(=O)NCCCn1ccnc1, the Potency was inconclusive: 18.5 µM [inhibitor, single point].
With COC(=O)Nc1nnc(COc2ccccc2)s1 the “activity change, negative = inhibition” value was inactive: 11%.
In the case of CC(=O)c1ccc(OCC(O)CN2CCN(Cc3ccccc3)CC2)cc1 (stereo not given), the Potency is reported as inconclusive: 13.1 µM [inhibitor, single point].
For CCCCN1C(=O)C(C)=C(C)C1OCCc1ccc(OC)c(OC)c1 (stereo not given), the Potency was inconclusive: 18.5 µM [inhibitor, single point].
For N#CC(C#N)=Cc1c(N2CCN(c3ccccc3)CC2)nc2ccccn2c1=O, the Potency was inconclusive: 18.5 µM [inhibitor, single point].
With COCC(C)N1CCC(Oc2ccc(C(=O)NCc3ccccn3)cc2)CC1 (stereo not given) the Potency was active: 11.7 µM.
With Cn1c(=O)c2c(SCc3cccnc3)nc(C3CC3)nc2n(C)c1=O the Potency was inconclusive: 18.5 µM [inhibitor, single point].
For Cc1cc(C(=O)N/N=C/c2ccc([N+](=O)[O-])s2)n[nH]1, the Potency was active: 2.08 µM.
For COc1ccc(CN(C2CCCCC2C)S(=O)(=O)c2ccc(S(=O)(=O)N(C)C)cc2)cc1OC (stereo not given), the Potency was inconclusive: 14.7 µM [inhibitor, partial curve, poor fit].
For O=C(Nc1cccc(S(=O)(=O)N2CCCCCC2)c1)C1CCC1, the Potency was active: 13.1 µM.
In the case of COc1ccc(C2C(C(C)=O)=C(O)C(=O)N2c2ccc(Br)cn2)cc1 (stereo not given), the Potency is reported as active: 4.15 µM.
In the case of COc1ccc(CN2CCNC(=O)C2CC(=O)NCC(C)(C)N2CCOCC2)cc1C (stereo not given), the Potency is reported as inconclusive: 20.8 µM [inhibitor, partial curve, poor fit].
For CCOc1ccc(/C=N/NC(=O)c2cc(-c3ccccc3)nc3ccccc23)cc1O, the “activity change, negative = inhibition” value was inactive: 0.304%.
With CCc1ccccc1N(CC(=O)NCC1CCCO1)C(=O)CCC(=O)Nc1cc(C)on1 (stereo not given) the “activity change, negative = inhibition” value was inactive: -0.417%.
With CCCC(c1c(C)n(C)n(-c2ccccc2)c1=O)c1c(C)n(C)n(-c2ccccc2)c1=O the Potency was inconclusive: 10.4 µM [inhibitor, single point].
With C/C(CC1(O)C(=O)N(C)c2ccccc21)=N\O (stereo not given) the Potency was inconclusive: 4.15 µM [inhibitor, partial curve, poor fit].
With CN(C)c1nc(Nc2ccccc2)nc(N(C)C)n1 the “activity change, negative = inhibition” value was inactive: -0.0482%.
With COC(=O)c1[nH]c2cc(OC)c(OC)cc2c1NC(=O)CN1CCN(Cc2ccccc2)CC1 the Potency was inconclusive: 13.1 µM [inhibitor, partial curve, poor fit].
With COc1cc2[nH]c(C(=O)NCCc3ccccc3)cc2c(OC)c1OC the Potency was inconclusive: 11.7 µM [inhibitor, single point].
For O=C(c1ccc(C(=O)N2CCCc3ccccc32)nc1)N1CCCc2ccccc21, the Potency was inconclusive: 4.65 µM [inhibitor, partial curve].
For O=C1c2cccc3c([N+](=O)[O-])ccc(c23)C(=O)N1Cc1cccnc1, the “activity change, negative = inhibition” value was inactive: 5.47%.
In the case of Cc1cc(C)cc(NC(=O)Nc2cnccn2)c1, the Potency is reported as inconclusive: 18.5 µM [inhibitor, single point].
In the case of CCOCC(=O)Nc1cc([N+](=O)[O-])ccc1OC, the Potency is reported as inconclusive: 4.65 µM [inhibitor, partial curve, poor fit].
In the case of O=C(O)CC1NC(=O)N(c2ccccc2)C1=O (stereo not given), the Potency is reported as active: 2.62 µM.
For C=CCN1CN(S(=O)(=O)c2cccc(Cl)c2)c2nc3ccccc3nc21, the Potency was inconclusive: 18.5 µM [inhibitor, single point].
